Assay results as given in the supplement of paper PMC10849652.
The other results are listed elsewhere or left out.

Chains of the proteins cited; added tags and fusions are not shown. Lines headed by an entry give the natural chain unless they say otherwise; changes in a name come on top.
UniProt O95071: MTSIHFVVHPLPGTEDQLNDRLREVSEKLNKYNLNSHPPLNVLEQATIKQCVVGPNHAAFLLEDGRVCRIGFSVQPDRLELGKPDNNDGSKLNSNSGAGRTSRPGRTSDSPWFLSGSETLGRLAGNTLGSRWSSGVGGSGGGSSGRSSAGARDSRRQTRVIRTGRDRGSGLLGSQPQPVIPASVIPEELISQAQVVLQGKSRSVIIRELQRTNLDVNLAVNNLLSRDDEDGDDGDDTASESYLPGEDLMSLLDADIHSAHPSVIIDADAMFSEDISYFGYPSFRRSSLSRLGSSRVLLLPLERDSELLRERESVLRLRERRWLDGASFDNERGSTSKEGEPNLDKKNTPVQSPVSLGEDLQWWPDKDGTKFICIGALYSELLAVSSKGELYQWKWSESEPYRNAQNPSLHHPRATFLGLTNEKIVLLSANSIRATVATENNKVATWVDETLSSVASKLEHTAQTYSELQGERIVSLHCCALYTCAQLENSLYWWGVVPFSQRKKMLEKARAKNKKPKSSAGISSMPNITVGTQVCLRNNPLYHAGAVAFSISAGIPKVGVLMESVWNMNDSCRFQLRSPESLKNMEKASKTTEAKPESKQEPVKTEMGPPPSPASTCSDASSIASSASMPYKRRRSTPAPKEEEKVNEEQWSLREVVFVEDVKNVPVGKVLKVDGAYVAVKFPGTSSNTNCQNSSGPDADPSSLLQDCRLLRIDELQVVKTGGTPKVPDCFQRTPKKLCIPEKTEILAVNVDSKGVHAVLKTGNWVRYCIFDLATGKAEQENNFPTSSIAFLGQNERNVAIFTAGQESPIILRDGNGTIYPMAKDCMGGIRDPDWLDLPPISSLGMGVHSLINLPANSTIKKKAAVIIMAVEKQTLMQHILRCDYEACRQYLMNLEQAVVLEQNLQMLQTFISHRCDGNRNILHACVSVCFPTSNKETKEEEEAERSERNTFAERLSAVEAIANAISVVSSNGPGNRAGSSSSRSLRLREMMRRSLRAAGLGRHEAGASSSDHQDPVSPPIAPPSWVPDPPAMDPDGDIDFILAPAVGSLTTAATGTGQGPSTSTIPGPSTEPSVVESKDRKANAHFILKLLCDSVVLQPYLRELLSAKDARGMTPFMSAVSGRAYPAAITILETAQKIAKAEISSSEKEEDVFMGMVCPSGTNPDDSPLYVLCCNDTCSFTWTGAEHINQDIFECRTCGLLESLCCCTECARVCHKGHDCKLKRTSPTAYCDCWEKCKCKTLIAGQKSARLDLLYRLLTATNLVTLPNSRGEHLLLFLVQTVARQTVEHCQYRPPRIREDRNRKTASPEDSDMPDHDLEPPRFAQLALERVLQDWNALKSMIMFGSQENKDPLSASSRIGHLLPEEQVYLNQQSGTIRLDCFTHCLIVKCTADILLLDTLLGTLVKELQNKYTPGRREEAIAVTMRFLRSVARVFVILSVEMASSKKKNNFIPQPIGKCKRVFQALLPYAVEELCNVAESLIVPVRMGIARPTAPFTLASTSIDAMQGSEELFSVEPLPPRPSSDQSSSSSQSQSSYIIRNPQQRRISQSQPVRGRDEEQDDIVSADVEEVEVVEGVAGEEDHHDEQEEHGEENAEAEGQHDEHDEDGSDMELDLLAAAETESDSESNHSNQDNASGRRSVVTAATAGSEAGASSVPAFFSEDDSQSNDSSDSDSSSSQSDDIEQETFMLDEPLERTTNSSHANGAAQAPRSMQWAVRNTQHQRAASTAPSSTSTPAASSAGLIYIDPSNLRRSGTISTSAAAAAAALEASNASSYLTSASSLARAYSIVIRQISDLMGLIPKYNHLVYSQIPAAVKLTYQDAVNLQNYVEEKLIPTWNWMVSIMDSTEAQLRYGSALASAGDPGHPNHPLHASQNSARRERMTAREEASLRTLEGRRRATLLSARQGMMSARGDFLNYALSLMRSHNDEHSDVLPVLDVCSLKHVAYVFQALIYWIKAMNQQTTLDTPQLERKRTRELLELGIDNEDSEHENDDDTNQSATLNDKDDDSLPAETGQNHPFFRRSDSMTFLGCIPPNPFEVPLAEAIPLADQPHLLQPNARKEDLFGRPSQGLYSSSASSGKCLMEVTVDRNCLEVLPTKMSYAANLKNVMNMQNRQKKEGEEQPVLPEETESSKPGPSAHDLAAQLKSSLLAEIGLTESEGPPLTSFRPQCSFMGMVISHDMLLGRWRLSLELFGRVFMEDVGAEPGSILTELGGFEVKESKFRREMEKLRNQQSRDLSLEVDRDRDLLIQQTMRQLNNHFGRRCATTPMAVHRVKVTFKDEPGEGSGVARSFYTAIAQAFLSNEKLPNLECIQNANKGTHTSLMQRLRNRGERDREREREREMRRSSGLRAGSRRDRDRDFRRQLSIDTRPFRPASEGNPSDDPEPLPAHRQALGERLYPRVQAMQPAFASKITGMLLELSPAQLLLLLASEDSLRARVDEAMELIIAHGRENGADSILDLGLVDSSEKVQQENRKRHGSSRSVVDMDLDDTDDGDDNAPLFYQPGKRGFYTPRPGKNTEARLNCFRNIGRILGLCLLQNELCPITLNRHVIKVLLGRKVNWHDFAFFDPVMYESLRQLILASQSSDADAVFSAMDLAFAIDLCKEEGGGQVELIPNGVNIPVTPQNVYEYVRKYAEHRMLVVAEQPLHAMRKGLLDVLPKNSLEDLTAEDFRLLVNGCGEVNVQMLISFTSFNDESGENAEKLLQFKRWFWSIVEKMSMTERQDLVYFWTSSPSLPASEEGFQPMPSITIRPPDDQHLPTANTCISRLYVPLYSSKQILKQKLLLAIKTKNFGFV
UniProt Q9NUQ7: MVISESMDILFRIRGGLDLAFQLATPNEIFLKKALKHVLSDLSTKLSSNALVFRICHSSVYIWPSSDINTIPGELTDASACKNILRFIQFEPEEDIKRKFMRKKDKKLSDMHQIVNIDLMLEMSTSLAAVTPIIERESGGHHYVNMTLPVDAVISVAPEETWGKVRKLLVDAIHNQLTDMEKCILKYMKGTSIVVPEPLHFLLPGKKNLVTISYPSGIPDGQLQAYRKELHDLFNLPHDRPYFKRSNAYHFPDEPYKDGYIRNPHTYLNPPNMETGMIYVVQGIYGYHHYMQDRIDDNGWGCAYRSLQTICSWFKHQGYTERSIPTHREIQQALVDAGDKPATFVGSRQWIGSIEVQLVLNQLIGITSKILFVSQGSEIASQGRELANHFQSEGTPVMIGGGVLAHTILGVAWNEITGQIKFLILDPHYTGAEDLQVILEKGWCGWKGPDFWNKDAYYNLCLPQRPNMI
UniProt Q9P2Y5: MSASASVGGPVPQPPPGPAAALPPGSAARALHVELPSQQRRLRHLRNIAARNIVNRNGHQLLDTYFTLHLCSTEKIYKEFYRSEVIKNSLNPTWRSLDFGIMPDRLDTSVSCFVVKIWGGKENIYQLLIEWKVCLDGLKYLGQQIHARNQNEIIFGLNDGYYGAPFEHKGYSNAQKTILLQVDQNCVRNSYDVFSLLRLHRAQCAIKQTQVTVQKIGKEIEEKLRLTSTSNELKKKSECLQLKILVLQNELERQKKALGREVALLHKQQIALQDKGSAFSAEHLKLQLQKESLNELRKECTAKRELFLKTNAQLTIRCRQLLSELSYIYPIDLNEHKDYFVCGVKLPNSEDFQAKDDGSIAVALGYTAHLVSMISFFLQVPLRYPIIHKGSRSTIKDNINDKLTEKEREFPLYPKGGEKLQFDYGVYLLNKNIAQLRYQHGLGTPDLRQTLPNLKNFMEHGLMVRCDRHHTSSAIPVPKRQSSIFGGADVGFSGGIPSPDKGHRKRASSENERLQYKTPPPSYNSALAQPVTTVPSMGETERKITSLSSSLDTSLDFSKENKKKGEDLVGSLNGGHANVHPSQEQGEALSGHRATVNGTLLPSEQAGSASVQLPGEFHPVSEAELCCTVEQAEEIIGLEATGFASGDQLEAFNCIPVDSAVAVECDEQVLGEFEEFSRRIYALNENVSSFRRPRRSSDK
UniProt Q14694, whole entry, looked up: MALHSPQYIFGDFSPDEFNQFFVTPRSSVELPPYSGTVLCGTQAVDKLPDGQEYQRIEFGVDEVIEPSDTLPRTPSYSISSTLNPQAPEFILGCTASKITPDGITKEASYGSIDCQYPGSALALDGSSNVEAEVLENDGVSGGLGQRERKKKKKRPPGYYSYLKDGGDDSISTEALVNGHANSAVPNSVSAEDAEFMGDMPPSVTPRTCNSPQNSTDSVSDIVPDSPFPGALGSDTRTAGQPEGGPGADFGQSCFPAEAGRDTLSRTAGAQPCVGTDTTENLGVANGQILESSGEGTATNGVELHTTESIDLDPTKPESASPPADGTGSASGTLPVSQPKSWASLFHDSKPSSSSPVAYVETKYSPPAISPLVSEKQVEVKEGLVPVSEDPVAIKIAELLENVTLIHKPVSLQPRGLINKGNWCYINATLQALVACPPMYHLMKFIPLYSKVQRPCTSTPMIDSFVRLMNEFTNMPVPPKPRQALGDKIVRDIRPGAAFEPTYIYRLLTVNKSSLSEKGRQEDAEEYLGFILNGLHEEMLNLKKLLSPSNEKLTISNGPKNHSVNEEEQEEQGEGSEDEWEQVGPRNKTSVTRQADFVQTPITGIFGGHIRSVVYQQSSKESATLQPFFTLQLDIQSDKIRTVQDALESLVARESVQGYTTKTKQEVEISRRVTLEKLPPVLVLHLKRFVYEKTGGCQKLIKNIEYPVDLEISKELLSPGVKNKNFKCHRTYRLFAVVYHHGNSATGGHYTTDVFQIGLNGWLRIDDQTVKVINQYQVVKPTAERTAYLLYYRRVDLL
UniProt Q8NBZ7: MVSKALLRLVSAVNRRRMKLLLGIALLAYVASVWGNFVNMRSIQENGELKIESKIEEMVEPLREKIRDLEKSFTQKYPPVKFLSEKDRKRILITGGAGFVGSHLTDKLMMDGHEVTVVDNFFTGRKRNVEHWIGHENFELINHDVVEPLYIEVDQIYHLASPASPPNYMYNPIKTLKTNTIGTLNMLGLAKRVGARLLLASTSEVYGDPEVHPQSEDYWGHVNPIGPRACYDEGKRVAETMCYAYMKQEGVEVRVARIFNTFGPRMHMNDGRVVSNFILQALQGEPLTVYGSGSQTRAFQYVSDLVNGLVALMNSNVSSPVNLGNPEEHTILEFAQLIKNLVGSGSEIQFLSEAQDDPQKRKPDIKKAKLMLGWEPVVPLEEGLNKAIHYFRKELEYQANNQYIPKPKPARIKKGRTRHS
UniProt P07919: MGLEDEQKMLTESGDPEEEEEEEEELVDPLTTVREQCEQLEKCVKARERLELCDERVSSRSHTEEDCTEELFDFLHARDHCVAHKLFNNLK

Each target was assayed with c1cn2cc(-c3ccc4cn[nH]c4c3)nc(Nc3ccc(N4CCOCC4)cc3)c2n1 [entospletinib] (assay: log2 fold change, soluble protein after heating vs DMSO (PISA); higher = thermal stabilisation; K562 cells, 10 uM, 30 min; active = over 0.2 and 3.5 SD of the protein, either way, in both replicates (recomputed)).
Method in brief: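 K562 cells at 2×10^6 cells/mL were treated for 30 min with 10 μM compound, and aliquots were heated for 3 min over 48°C-58°C before pooling. Extraction used PBS with 0.5% NP-40 at 4°C, and soluble protein was the supernatant after 21,000xg for 90 min, measured by TMTpro 16plex LC-MS/MS with channel sums equalised. Thermal stability values, relative to control samples and from duplicates, are log2 fold changes.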

log2 fold change, inactive:
UBR5 (UniProt O95071) 0.034, UFSP2 (UniProt Q9NUQ7) -0.01, UVRAG (UniProt Q9P2Y5) 0.01, USP10 isoform 2 (UniProt Q14694) 0.063, UXS1 isoform 2 (UniProt Q8NBZ7) -0.062, UQCRH (UniProt P07919) -0.1
